Data from PMC4660199.
These are yes or no findings as the source states them, for the method shown.

Biological target: cpSRP43 CD3 (UniProt O22265)
Assay: NMR solution structure; solution structure of unliganded CD3, 298 K, 20 mM Na-phosphate (pH 6.5), 150 mM NaCl; set against the helix-swapped crystal form; both purified

cpSRP43 CD3 (from UniProt O22265 316-373) (domain or fragment)
binding: no binding
